# PubChem BioAssay AID1662 (Broad Institute, 2009)
# Values joined by “and” are separate entries in the source; they are usually repeats but may differ in a detail not shown here. Identical values can stand only once. Out of some 300,000 compounds screened, about 4,000 (1.3%) were called active. Inconclusive means that the source gave no clear call. Such entries were picked first, then a sample of the others.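 The calls were made as follows: active = mean replicate score, as percent of positive control median, at least 50; inconclusive = mean below 50 but one replicate at or above 50; inactive = mean and every replicate below 50.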
# Assay: kanamycin survival loss of SKKanGAS strain – BacTiter-Glo luminescence, streptokinase expression inhibitor project, primary screen (AID 1662);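 also: strain carries kanamycin resistance gene driven by streptokinase promoter and grows in 40 µg/ml kanamycin; loss of luminescence reflects streptokinase promoter inhibition or plain growth inhibition; 0% = median of DMSO wells and 100% = positive control at its reference dose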
# Conditions: S. pyogenes SKKanGAS, kanamycin growth, 6 h, at 7.5 µM, active compounds read high
row,Structure (SMILES),inhibition
1,Cc1nc(N)sc1N=Nc1ccc(F)cc1,active: 80.9%
2,Cc1ccc(C(=O)N/N=C/c2ccc([N+](=O)[O-])s2)cc1,inconclusive: 44%
3,O=C(CSC1=NCCN1)Nc1cccc(C(F)(F)F)c1,inactive: 2.2%
4,O=C1N=C(N2CCCCC2)SC1=C1CCCCC1,inactive: 4.66%
5,O=C(Nc1cccc(-c2csc(Nc3ccc(Cl)cc3)n2)c1)c1cc([N+](=O)[O-])cc(C(F)(F)F)c1,inconclusive: 49.5%
6,O=C(CCN1CCN(S(=O)(=O)c2ccc(Cl)cc2)CC1)Nc1ccc(F)cc1,inactive: -6.95%
7,CC(=O)NNS(=O)(=O)c1scc(S(=O)(=O)c2ccc(Cl)cc2)c1C,inactive: 2.64%
8,COc1ccc(/C=C2/S/C(=N/N=C3\CC4CCC3(C)C4(C)C)NC2=O)cc1 (centres undefined),inconclusive: 48.6%
9,Cc1ccc(C(=O)N/N=C/c2c(O)ccc3ccccc23)cn1,active: 60.1%
10,CC(C)CCN1C(=O)c2ccc(C(=O)Nc3ccc(Br)cc3C(=O)O)cc2C1=O,inconclusive: 46.4%
11,Cc1cccc(Nc2nc(N)nc(CN3CCN(c4ccccc4)CC3)n2)c1,inconclusive: 35.6%
12,O=C(O)c1cnc(-c2ccccc2)nc1Sc1ccc(Cl)cc1Cl,inconclusive: 35.8%
13,CC(Oc1ccc(F)cc1)C(=O)Nc1ccccc1N1CCCCC1 (centres undefined),inconclusive: 48%
14,C/C(=N\NC(=O)c1cccc2ccccc12)c1cccs1,inconclusive: 38.1%
15,O=C(Nc1nnc(C2CCCCC2)s1)c1ccc(Br)s1,inconclusive: 47.1%
16,CC1CC(C)(C)n2c(O)c(N=NC(N)=S)c3cccc1c32 (centres undefined),inconclusive: 42.3%
17,O=C(N/N=C/c1ccccn1)c1[nH]c2ccc([N+](=O)[O-])cc2c1-c1ccccc1,inconclusive: 48.3%
18,O=C1c2ccccc2C(=O)N1CC1CCCO1 (centres undefined),inactive: -2.67%
19,Cc1cc(C)nc(-n2nc(C)c(Sc3ccc(F)cc3)c2N)n1,inconclusive: 25.3%
20,O=C(Nc1nnc(-c2ccccc2)o1)c1cc(Cl)sc1Cl,active: 89.5%
21,CCOc1ccc2oc(C(=O)NNC(=O)c3ccccc3O)c(C)c2c1,active: 68.8%
22,O=C(Nc1nc(-c2ccccc2)cs1)c1ccc2c(=O)n3c(nc2c1)CCCCC3,inconclusive: 46.2%
23,Oc1ccc(CN2CCc3ccccc3C2)c2cccnc12,active: 82.8%

row,Structure (SMILES),inhibition
1,CN(C)c1ccc(/C=N/NC(=O)c2ccc3c(c2)OCCO3)cc1,inconclusive: 44.8%
2,Cc1nn(Cc2ccc(F)cc2)c(Cl)c1/C=N/NC(=O)c1ccccc1,inactive: 2.89%
3,Oc1c(N=NC(=S)Nc2ccccc2F)c2ccccc2n1Cc1ccccc1F,active: 79%
4,Cc1ccc(C(=O)Nc2nnc(-c3ccco3)o2)cc1C,inconclusive: 45.9%
5,O=C(Nc1cccc(-c2nnc(-c3ccccc3)o2)c1)c1ccc(Br)o1,inconclusive: 43.9%
6,COC(=O)c1sc(N)c(C(=O)OC)c1CSc1nc2sc3c(c2c(=O)n1C)CCC3,inconclusive: 38%
7,Cc1ccccc1CC(=O)Nc1ccc(S(=O)(=O)N2CCOCC2)cc1,inactive: -4.21%
8,COc1cccc(-c2ccc(SCC(=O)NC3CCCCC3)nn2)c1,inconclusive: 41%
9,C=C[C@]1(C)C[C@@H](OC(=O)CSCCN(CC)CC)[C@]2(C)C(C)CC[C@]3(CCC(=O)[C@H]32)[C@@H](C)[C@@H]1O (some centres undefined),active: 106% and active: 104%
10,CCOc1ccc(/C=N/NC(=O)c2[nH]ncc2Br)c(O)c1,inactive: -8.12%
11,CCOc1ccc(NC(=O)NCCCCc2ccccc2)cc1,inconclusive: 40.2%
12,COc1cc(C(=O)N/N=C/c2ccc3c(c2)c2ccccc2n3C)ccc1O,active: 50.8%
13,Cc1cc(SCC(=O)c2ccc(O)c(O)c2)n2nc(C)c(-c3ccccc3)c2n1,inconclusive: 44%
14,O=c1cc(N/N=C/c2ccccc2)[nH]c(=O)[nH]1,inactive: -4.28%
15,O=[N+]([O-])c1cccc(NC(=S)Nc2nc(-c3ccc(Cl)cc3Cl)cs2)c1,inconclusive: 29.8%
16,CCCc1sc(N/N=C/c2ccccn2)nc1-c1ccc(Br)cc1,active: 67.1%
17,CCc1sc(N(C(=O)Cc2ccccc2)c2cccc(F)c2)nc1-c1ccc(C)cc1,active: 59.4%
18,NNC(=O)c1nc[nH]c1C(=O)Nc1ccccn1,inconclusive: 28.1%
19,O=C(O)/C(=C\c1ccc2ccccc2c1)c1cccc2ccccc12,inconclusive: 31.4%
20,Cc1cc(NS(=O)(=O)c2ccc(NC(=O)/C=C/c3ccccc3Cl)cc2)no1,inconclusive: 48.1%
21,Cc1cc(C)cc(C(=O)Nc2nc3ccccc3[nH]2)c1,inconclusive: 48.2%
22,CC(C)C(c1nnnn1C1CCCC1)N1CCCc2ccccc21 (centres undefined),inactive: 0.829%
23,Cc1ccc(OCc2ccc(C(=O)Nc3c(C)nn(Cc4c(F)c(F)c(F)c(F)c4F)c3C)o2)c([N+](=O)[O-])c1,inconclusive: 34.4%

row,Structure (SMILES),inhibition
1,C=C(C)C1Cc2c(C)nn(-c3cccc4ccccc34)c2C1 (centres undefined),inconclusive: 43.5%
2,CCc1ccc(NC(=O)CSc2nc(O)cc(=O)n2C2CCCC2)cc1,inconclusive: 42.5%
3,CCCC(NC(=S)NCC1CCCO1)C12CC3CC(CC(C3)C1)C2 (centres undefined),inconclusive: 49.3%
4,O=C(COc1ccccc1)Nc1cccc(-c2nc3ccccc3[nH]2)c1,inconclusive: 36%
5,O=C(CSc1nnc(-c2cccs2)o1)NCC1CN(Cc2ccccc2)CCO1 (centres undefined),inactive: -5.02%
6,NC(=S)N/N=C/c1c(O)c(Br)cc2oc3c(c12)CCCC3,active: 87%
7,COc1ccccc1Oc1cn[nH]c1-c1ccc(OCC(=O)NN)cc1O,active: 49.5%
8,COc1cc(OC)cc(-c2nnc(NC(=O)CCS(=O)(=O)c3ccc(F)cc3)o2)c1,inconclusive: 39.2%
9,O=C(CN(c1ccccc1)S(=O)(=O)c1ccccc1[N+](=O)[O-])NN=C1CCCCCCC1,inactive: -1.73%
10,CC1CCN(S(=O)(=O)c2ccc(C(=O)Nc3nnc(-c4ccco4)o3)cc2)CC1,inconclusive: 36.5%
11,Cc1cc(C)c(COc2ccc(/C=N/n3c(C)n[nH]c3=S)cc2)c(C)c1,inconclusive: 49.3%
12,CCN(CC)C(=O)c1cc(-c2ccc(Br)cc2)on1,inconclusive: 27.1%
13,CCN(CC)c1ccc(NC(=O)/C=C\c2ccccc2Cl)cc1,inactive: 26.7%
14,Cc1ccc(S(=O)(=O)N2CCN(C(=O)CC(C)n3cncn3)CC2)cc1C (centres undefined),inactive: -1.86%
15,Cc1cccc(CCNC(=O)CC2C(=O)NCCN2Cc2ccccc2C)n1 (centres undefined),inconclusive: 47%
16,Cc1onc(-c2c(F)cccc2Cl)c1C(=O)NC1CC1,inconclusive: 42.2%
17,O=C(CN1C(=O)NC2(CCCC2)C1=O)N1CCN(S(=O)(=O)c2cccc(F)c2)CC1,inactive: -0.0779%
18,O=C(NCc1ccc2c(c1)OCO2)Nc1ccc(Cl)cc1,inconclusive: 41.9%
19,COc1ccc(-c2cc(C3CCN(c4ncccc4[N+](=O)[O-])CC3)[nH]n2)cc1,inconclusive: 48.1%
20,Cc1cc(-n2c(C)cc(C(=O)CSc3nc4ccccc4c(=O)n3Cc3ccco3)c2C)no1,inconclusive: 28.3%
21,CC(=O)Oc1ccc(/C=N/NS(=O)(=O)c2ccccc2)cc1,inconclusive: 29%
22,COCCn1c(N)c(C(=O)NS(=O)(=O)c2ccc(C)cc2)c(=O)[nH]c1=O,inconclusive: 36.7%
23,Cc1cccc(NC(=O)CSc2nc3ccccc3nc2N2CCCC2)c1,inactive: 3.04%

row,Structure (SMILES),inhibition
1,CC1CCCN(S(=O)(=O)c2ccc(C(=O)Nc3nnc(-c4ccco4)o3)cc2)C1 (centres undefined),inconclusive: 45%
2,CCc1ccc2c(Cl)c(C(=O)N/N=C/c3c[nH]c4ccccc34)sc2c1,active: 69.2%
3,C=CCn1c(COc2ccccc2)nnc1SCC(=O)N/N=C/c1cc(Cl)ccc1O,active: 62.8%
4,CCOc1cc(CNc2ccc3c(c2)CCC3)ccc1OC,inconclusive: 23.3%
5,COc1ccc(OC)c(S(=O)(=O)N2CCC(NC(=O)c3ccccc3)CC2)c1,inactive: 3.18%
6,CCN(c1ccccc1)S(=O)(=O)c1ccc(C(=O)Nc2nnc(CSC)o2)cc1,inconclusive: 45.7%
7,Cc1nnc(SCC(=O)N2CCCCC2)n1CC1CCCO1 (centres undefined),inactive: 9.43%
8,CCOC(=O)c1nnn(CC(=O)Nc2cccc(F)c2)c1C(=O)OCC,inactive: -0.0535%
9,Oc1ccc(N=Nc2ccc3c(c2)OCO3)c2ccccc12,active: 88.2%
10,COc1ccc(CN2C(=O)CS/C2=N/N=C/c2cccs2)cc1,inactive: 13.1%
11,N#Cc1c(NC(=O)CCCl)sc2c1CCCCC2,inconclusive: 18.7%
12,COc1ccccc1N(CC(O)Cn1c2ccccc2c2ccccc21)S(=O)(=O)c1ccccc1 (centres undefined),inconclusive: 47.2%
13,C=CCCC(=O)Nc1nc(C)c(-c2csc(Nc3ccc(Cl)cc3Cl)n2)s1,inconclusive: 46.8%
14,S=c1[nH]nc(-c2ccncc2)n1/N=C/c1cn(-c2ccccc2)nc1-c1ccccc1,active: 50.8%
15,O=[N+]([O-])c1cc(O)c2ncccc2c1,inconclusive: 23.3%
16,COc1cccc(-c2cc(C(=O)NCC3CCCO3)c3cc(Br)cc(C)c3n2)c1 (centres undefined),inconclusive: 44.5%
17,O=C(CN(C(=O)Cn1nnc(-c2ccccc2F)n1)c1cccc2c1CCCC2)NCc1ccccc1,inconclusive: 47.4%
18,CC(C)(C)c1ccc(C(=O)NCc2nnc(SCC(=O)NC3CCCC3)o2)cc1,inconclusive: 49.2%
19,Nc1c(Nc2ccccc2)c2ccccc2oc1=O,inconclusive: 21.2%
20,CC1=C[C@@H](C)[C@@H](c2ccccc2)OC1=O,inactive: -0.746%
